# Measured values: PMC12040169 (PLOS Biology, 2025)
# The other results are listed elsewhere or left out.
# Test system: T1, CTL2-GFP (C. trachomatis L2/434/Bu, GFP-expressing)
# T1 construct: L2/434/Bu, GFP-expressing
# Set-up: species or system HeLa; Intracellular C. trachomatis growth in HeLa cells, bulk GFP fluorescence relative to DMSO
# Conditions: bulk GFP, single well; 28.5 h, 10 µM; inhibitor
row,SMILES,% of control remaining
1,Cc1ccc(C(=O)NCCN2CCOCC2)cc1S(=O)(=O)N1CCCCC1 [CBK267329],139.066%
2,c1ccc(CC2CCN(CCC(c3ccccc3)c3ccccc3)CC2)cc1 [CBK126389],95.7571%
3,COc1ccc(NC(=O)COc2noc3nc(C)c(C)c(C)c23)cc1OC [CBK269526],120.41%
4,FC(F)(F)Sc1ccc(COc2cccc3cccnc23)cc1 [CBK002776],80.2418%
5,C/C=C/c1ccc(OCCCSc2ccc(Cl)cc2)c(OC)c1 [CBK264147],100%
6,CCOc1ccc(C(=O)Nc2ccc(Cc3ccncc3)cc2)cc1[N+](=O)[O-] [CBK262867],100.318%
7,CCC(C)CC(=O)NS(=O)(=O)c1cc(C#N)ccc1C (stereo not drawn) [CBK306487],63.4184%
8,O=C(O)CCC(=O)Nc1nc(-c2ccc(Cl)cc2)cs1 [CBK299829],133.243%
9,COC[C@H]1CCCN1C(=O)CC[C@H]1CNC(=O)[C@@H]2[C@@H](CCN2C2CCOCC2)N1C [CBK289037],149.6%
10,c1ccc2c(c1)nc(-c1cscn1)n2CCCCc1nnn[nH]1 [CBK267110],131.627%
11,Cc1nc(C2CCN(C(=O)c3ccccn3)CC2)c2sccn12 [CBK282238],116.951%
12,CS(=O)(=O)Nc1nccnc1N1CCN(Cc2ccc(Cl)c(Cl)c2)CC1 [CBK084267],79.0123%
13,COc1ccccc1-c1nccnc1OC(c1ccccc1)c1ccccc1 [CBK106813],100.736%
14,COc1ccc(CN(Cc2cccs2)[C@@H]2COC[C@H]2c2ccc(F)cc2)cc1 [CBK286487],86.5841%
15,CCN(CC1CCN(C)C1)C(=O)c1cc(COc2cccc(F)c2)[nH]n1 (stereo not drawn) [CBK307239],156.956%
16,COc1cccc(-c2cnc(N)c(NCc3ccco3)n2)c1 [CBK063684],163.948%
17,CC1c2ccsc2CCN1C(=O)COc1ccc(Br)cc1 (stereo not drawn) [CBK304999],112.969%
18,Cn1cc(-c2ncc(OCCc3c[nH]c4ccccc34)nc2N)cn1 [CBK145166],122.587%
19,CC(CCCC(C)(C)O)Nc1cncc(-c2cccc(C(=O)O)c2)n1 (stereo not drawn) [CBK065489],67.7342%
20,CSc1nnc(CC2CCN(C(=O)c3ccccc3C(C)=O)CC2)n1C [CBK306720],119.885%
21,COc1ccc(Nc2nccc3c2nnn3C)cc1 [CBK287879],119.095%

row,SMILES,% of control remaining
1,CC(=O)Nc1cccc(NC(=O)CSc2ncnc3c2nnn3C)c1 [CBK287829],112.002%
2,O=C(O)c1cccc(Nc2nc3ccccc3nc2NS(=O)(=O)c2ccc(Br)cc2)c1 [CBK296113],115.447%
3,CN(CC(=O)OCC(=O)c1ccccc1)S(=O)(=O)c1ccc(Cl)cc1 [CBK264363],102.599%
4,Cc1nc2ccccc2nc1COC(=O)c1ccc(S(=O)(=O)N2CCCCC2C)cc1 (stereo not drawn) [CBK297932],122.942%
5,NC(=O)c1ccccc1NC(=O)c1ccc2ccccc2c1 [CBK261171],110.61%
6,Cn1cc(C(=O)N2CCc3nc(-c4ccccc4F)sc3C2)cn1 [CBK281914],111.814%
7,Cc1ccc(C(NC(=O)CC(C)C)c2ccc3cccnc3c2O)cc1 (stereo not drawn) [CBK293943],136.411%
8,CCCCCOc1nccnc1N1CCNCC1 [CBK001901G],105.243%
9,O=S1(=O)N=CNc2ccccc21 [CBK028171],100.192%
10,C=CCn1c(SCCC(=O)O)nc2c1c(=O)n(C)c(=O)n2C [CBK269573],153.327%
11,O=C(Cn1c2ccccc2n2ncnc12)c1ccc(-c2ccccc2)cc1 [CBK263097],82.5912%
12,O=C(Nc1ccc(F)c(Cl)c1)c1cccnc1Sc1cccs1 [CBK057512],100.284%
13,O=c1c2c3nc4ccccc4nc3n(CCc3ccccc3)c2ncn1C1CCCC1 [CBK269464],93.0415%
14,CCS(=O)(=O)NC1CCN(c2nc(C(F)(F)F)nc3[nH]cnc23)CC1 [CBK304588],128.813%
15,CCC(C)c1ccc(NC(=O)CSc2nnnn2C)cc1 (stereo not drawn) [CBK058085],107.823%
16,CC(C)(C)OC(=O)NCCc1ccc(Nc2cc(-c3ccc4c(c3)OCO4)ncn2)cc1 [CBK090957],109.876%
17,FC(F)(F)c1ccc(SCc2cccs2)nc1 [CBK103711],95.151%
18,Cc1cc(C)c2cc(CN(CCO)Cc3nnnn3CC3CCCO3)c(=O)[nH]c2c1 (stereo not drawn) [CBK108944],128.158%
19,CCN(CC)CCN(CC(=O)Nc1c(C)cccc1Cl)Cc1ccccc1 [CBK023143],135.227%
20,c1ccc(COCCCN2CCC3(CC2)OCCc2c3[nH]c3ccccc23)cc1 [CBK040208],100%
21,O=C(Cc1cccc(F)c1)N1CCC(c2cc3ncccc3[nH]2)CC1 [CBK283374],101.894%

row,SMILES,% of control remaining
1,O=C(c1ccccc1O)N1CCN(Cc2cc(=O)n3ccsc3n2)CC1 [CBK306096],138.019%
2,Nc1nc(Cl)c2ncn([C@H]3C[C@@H](O)[C@@H](CO)O3)c2n1 [CBK201193],140.714%
3,COc1ccc(Cc2n[nH]c(=S)n2-c2cccnc2)cc1 [CBK288373],134.448%
4,O=c1c2cccnc2ncn1CC(O)COc1ccc(-c2ccccc2)cc1 (stereo not drawn) [CBK296690],127.996%
5,O=C(O)C1C(C(=O)O)C1C(=O)O (stereo not drawn) [CBK230432],108.954%
6,Cc1cccn2c(=O)cc(CN3CCC(CNc4ccccn4)C3)nc12 (stereo not drawn) [CBK306123],135.818%
7,CC(=O)N1CCC2(CC1)NC(=O)N(c1ccc(C(=O)O)cc1)N2 [CBK286758],126.539%
8,O=C(Cn1c(-c2cncs2)nc2ccccc21)NCc1ccccc1 [CBK264705],100%
9,O=C(Nc1ccc2nc3n(c(=O)c2c1)CCCC3)C1CCCCC1 [CBK304383],111.139%
10,Cc1ccc(S(=O)(=O)NCCCO)cc1C(=O)O [CBK266610],156.746%
11,O=C(c1cc(C2CCCN(Cc3ccccc3)C2)no1)N1CCCC1 (stereo not drawn) [CBK283395],108.117%
12,Cc1ccc(Cc2c(C)nc(N3CCN(Cc4ccccc4)CC3)[nH]c2=O)cc1 [CBK270170],71.7097%
13,O=S(=O)(Nc1nnn[nH]1)c1cccc2nonc12 [CBK062380],192.828%
14,CC(C)n1c(=O)n(CC(=O)NC2CCCCC2)c2cccnc21 [CBK283696],102.283%
15,C=CCOc1ccc2ccccc2c1CNc1nn[nH]n1 [CBK267619],140.445%
16,O=C(c1cc(F)cc(F)c1)N1CCC(O)(c2cccnc2F)CC1 [CBK284361],122.006%
17,CC(=O)N1CCC2(C/C=C/C[C@H]3CN(CCO)CC[C@H]3NC(=O)CNC2=O)CC1 [CBK292139],115.013%
18,CC(Sc1ccc(Cl)cc1)C(=O)Nc1ccc(CSc2ccccc2)cc1 (stereo not drawn) [CBK264670],122.484%
19,Cc1ccc(NS(=O)(=O)c2cc(C(=O)N3CCN(C)CC3)ccc2C)cc1 [CBK268577],124.94%
20,COc1ccc(CC(=O)NNC(=O)Nc2ccc(Cl)c(Cl)c2)cc1 [CBK262652],104.775%
21,O=C(NCCSCc1ccco1)Nc1ccc(Cl)cc1 [CBK267869],137.682%

row,SMILES,% of control remaining
1,CC1(NC(=O)CC(c2ccncc2)c2c[nH]c3ccccc23)CCC1 (stereo not drawn) [CBK281610],116.099%
2,COc1ccc(OCc2nn(-c3nc4ccccc4s3)c(N)c2-c2ccccc2)cc1 [CBK266539],128.968%
3,CCCOc1ccc(C(C)=O)cc1CC(C(N)=O)C(N)=O [CBK263309],110.806%
4,Cc1ccc(S(N)(=O)=O)cc1-c1nnc2c3ccccc3c(C)nn12 [CBK266680],108.193%
5,COc1ccc(N2C(=O)CC(n3c(CCCCO)nc4ccccc43)C2=O)cc1 (stereo not drawn) [CBK268895],99.9779%
6,Cc1csc([C@H]2Cc3ccsc3[C@@H](C3CCOC3)N2)n1 (stereo partly drawn) [CBK285089],139.549%
7,Cn1nnnc1NC(=O)c1ccccc1F [CBK058776],91.6655%
8,CCn1ncnc1CN(C)Cc1ccc2c(c1)CN(C)C2 [CBK306530],133.18%
9,CCc1ccc(C(O)CNC2CCN(CCOC)CC2)cc1 (stereo not drawn) [CBK304259],116.05%
10,CCCCNC(=O)c1c(N)n(-c2ccc(C(=O)O)cc2)c2nc3ccccc3nc12 [CBK300500],164.977%
11,CC(=O)c1ccc(OC(C)C)c(CSc2nc(O)cc(O)n2)c1 [CBK263446],117.941%
12,COc1ccc(S(=O)(=O)N(CC(=O)O)C2CCCCC2)cc1Cl [CBK267997],121.244%
13,Cc1nc(-c2n[nH]cc2-c2ccccc2F)sc1CCN [CBK281578],124.796%
14,Oc1ccc(/N=C/c2ccc(/C=N/c3ccc(O)cc3)cc2)cc1 [CBK261203],102.432%
15,N#C/C(=C\c1ccc(OCC(=O)O)cc1)C(N)=S [CBK268917],162.129%
16,CC(C)(CN1CCCCC1)NC(=O)CCOc1cccc(F)c1 [CBK282060],98.6744%
17,CN(CCN1CCOCC1)c1nc2c(c(=O)[nH]1)Cc1ccccc1OC2 [CBK306783],124.379%
18,COc1ccc(-c2noc(CSc3nc4sc(C)c(C)c4c(=O)n3-c3ccccc3)n2)cc1 [CBK268264],133.241%

# Sorted by formula weight (low to high): part of the list above
row,SMILES,% of control remaining
7,Cn1nnnc1NC(=O)c1ccccc1F [CBK058776],91.6655%
15,N#C/C(=C\c1ccc(OCC(=O)O)cc1)C(N)=S [CBK268917],162.129%
13,O=S(=O)(Nc1nnn[nH]1)c1cccc2nonc12 [CBK062380],192.828%
15,C=CCOc1ccc2ccccc2c1CNc1nn[nH]n1 [CBK267619],140.445%
8,CCn1ncnc1CN(C)Cc1ccc2c(c1)CN(C)C2 [CBK306530],133.18%
3,CCCOc1ccc(C(C)=O)cc1CC(C(N)=O)C(N)=O [CBK263309],110.806%
13,Cc1nc(-c2n[nH]cc2-c2ccccc2F)sc1CCN [CBK281578],124.796%
6,Cc1csc([C@H]2Cc3ccsc3[C@@H](C3CCOC3)N2)n1 (stereo partly drawn) [CBK285089],139.549%
21,O=C(NCCSCc1ccco1)Nc1ccc(Cl)cc1 [CBK267869],137.682%
14,Oc1ccc(/N=C/c2ccc(/C=N/c3ccc(O)cc3)cc2)cc1 [CBK261203],102.432%
16,CC(C)(CN1CCCCC1)NC(=O)CCOc1cccc(F)c1 [CBK282060],98.6744%
1,CC1(NC(=O)CC(c2ccncc2)c2c[nH]c3ccccc23)CCC1 (stereo not drawn) [CBK281610],116.099%
11,CC(=O)c1ccc(OC(C)C)c(CSc2nc(O)cc(O)n2)c1 [CBK263446],117.941%
16,O=C(c1cc(F)cc(F)c1)N1CCC(O)(c2cccnc2F)CC1 [CBK284361],122.006%
4,Cc1ccc(S(N)(=O)=O)cc1-c1nnc2c3ccccc3c(C)nn12 [CBK266680],108.193%
17,CN(CCN1CCOCC1)c1nc2c(c(=O)[nH]1)Cc1ccccc1OC2 [CBK306783],124.379%
12,COc1ccc(S(=O)(=O)N(CC(=O)O)C2CCCCC2)cc1Cl [CBK267997],121.244%
20,COc1ccc(CC(=O)NNC(=O)Nc2ccc(Cl)c(Cl)c2)cc1 [CBK262652],104.775%
19,Cc1ccc(NS(=O)(=O)c2cc(C(=O)N3CCN(C)CC3)ccc2C)cc1 [CBK268577],124.94%
12,Cc1ccc(Cc2c(C)nc(N3CCN(Cc4ccccc4)CC3)[nH]c2=O)cc1 [CBK270170],71.7097%
5,COc1ccc(N2C(=O)CC(n3c(CCCCO)nc4ccccc43)C2=O)cc1 (stereo not drawn) [CBK268895],99.9779%
10,CCCCNC(=O)c1c(N)n(-c2ccc(C(=O)O)cc2)c2nc3ccccc3nc12 [CBK300500],164.977%
17,CC(=O)N1CCC2(C/C=C/C[C@H]3CN(CCO)CC[C@H]3NC(=O)CNC2=O)CC1 [CBK292139],115.013%
18,CC(Sc1ccc(Cl)cc1)C(=O)Nc1ccc(CSc2ccccc2)cc1 (stereo not drawn) [CBK264670],122.484%
18,COc1ccc(-c2noc(CSc3nc4sc(C)c(C)c4c(=O)n3-c3ccccc3)n2)cc1 [CBK268264],133.241%
